PubChem BioAssay AID1508588 | Peter MacCallum Cancer Centre | 2020
Screen: 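Which gene losses make BRAF-mutant melanoma cells more responsive to vemurafenib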 (primary screen). Cells: human WM266.4 melanoma cells (BRAF V600 mutant). Reagent: siRNA pool against human genes, 40 nM. Duration: 96 h from transfection to read-out. Treatment: vemurafenib 300 nM (about IC25), added 48 h after transfection, for 48 h; comparison arm got DMSO vehicle only. Measured: 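Cell gain (DAPI nuclei at end minus before drug, mean of two replicates) and medium lactate by absorbance per cell, both as ratio to non-targeting siRNA, also grouped into fold-change classes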. Direction: cell gain with vemurafenib: higher = more cell gain than with non-targeting siRNA; lactate per cell with vemurafenib: higher = more lactate made per cell. Active means: 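Enhancement is called by pairing each knock-down's vehicle-arm and drug-arm fold-change classes for viability or glycolysis; which class combinations qualify is not given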. Meaning of the calls: active = enhances vemurafenib effect; inactive = no enhancement seen.
Shown is an unselected part of about 18,000 deposited reagents. In the full data, 790 (4.4%) got an active call. 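Calls rest on a combination of fold-change classes in drug and vehicle arms, not all shown here.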 Some reagents were tested in more than one well and are listed for each.

STAM2 (GeneID 10254)
- cell gain with vemurafenib: 0.62
- lactate per cell with vemurafenib: 0.98
- activity call: inactive

VPS35L (GeneID 57020)
- cell gain with vemurafenib: 0.51
- lactate per cell with vemurafenib: 1.74
- activity call: inactive

ZNF442 (GeneID 79973)
- cell gain with vemurafenib: 0.43
- lactate per cell with vemurafenib: 1.09
- activity call: inactive

HSD11B1 (GeneID 3290)
- cell gain with vemurafenib: 1.1
- lactate per cell with vemurafenib: 0.57
- activity call: inactive

TCAP (GeneID 8557)
- cell gain with vemurafenib: 0.43
- lactate per cell with vemurafenib: 2.33
- activity call: inactive

NFAM1 (GeneID 150372)
- cell gain with vemurafenib: 0.73
- lactate per cell with vemurafenib: 0.9
- activity call: inactive

OASL (GeneID 8638)
- cell gain with vemurafenib: 0.13
- lactate per cell with vemurafenib: 1.52
- activity call: inactive

FOXD4 (GeneID 2298)
- cell gain with vemurafenib: 0.7
- lactate per cell with vemurafenib: 0.7
- activity call: inactive

RSBN1 (GeneID 54665)
- cell gain with vemurafenib: 0.67
- lactate per cell with vemurafenib: 1.03
- activity call: inactive

TEX101 (GeneID 83639)
- cell gain with vemurafenib: 0.74
- lactate per cell with vemurafenib: 1.29
- activity call: inactive

INKA2 (GeneID 55924)
- cell gain with vemurafenib: 0.31
- lactate per cell with vemurafenib: 1.31
- activity call: inactive

AVEN (GeneID 57099)
- cell gain with vemurafenib: 0.54
- lactate per cell with vemurafenib: 1.27
- activity call: inactive

KLF11 (GeneID 8462)
- cell gain with vemurafenib: 0.46
- lactate per cell with vemurafenib: 0.84
- activity call: inactive

VPREB1 (GeneID 7441)
- cell gain with vemurafenib: 1.09
- lactate per cell with vemurafenib: 0.76
- activity call: inactive

KCNH2 (GeneID 3757)
- cell gain with vemurafenib: 0.21
- lactate per cell with vemurafenib: 0.84
- activity call: inactive

KCNH2 (GeneID 3757)
- cell gain with vemurafenib: 0.4
- lactate per cell with vemurafenib: 1.4
- activity call: inactive

PTPMT1 (GeneID 114971)
- cell gain with vemurafenib: 0.74
- lactate per cell with vemurafenib: 0.52
- activity call: inactive

GXYLT2 (GeneID 727936)
- cell gain with vemurafenib: 0.71
- lactate per cell with vemurafenib: 0.74
- activity call: inactive

MAPKAP1 (GeneID 79109)
- cell gain with vemurafenib: 0.34
- lactate per cell with vemurafenib: 0.68
- activity call: inactive

HAUS1 (GeneID 115106)
- cell gain with vemurafenib: 0.44
- lactate per cell with vemurafenib: 0.97
- activity call: inactive

THY1 (GeneID 7070)
- cell gain with vemurafenib: 0.36
- lactate per cell with vemurafenib: 1.55
- activity call: inactive

TMEM51 (GeneID 55092)
- cell gain with vemurafenib: 0.49
- lactate per cell with vemurafenib: 1.18
- activity call: inactive

BAIAP2 (GeneID 10458)
- cell gain with vemurafenib: 1.19
- lactate per cell with vemurafenib: 1.5
- activity call: inactive

FLOT1 (GeneID 10211)
- cell gain with vemurafenib: 0.28
- lactate per cell with vemurafenib: 2.37
- activity call: inactive

UBR2 (GeneID 23304)
- cell gain with vemurafenib: 0.99
- lactate per cell with vemurafenib: 0.78
- activity call: inactive

PDRG1 (GeneID 81572)
- cell gain with vemurafenib: 0.53
- lactate per cell with vemurafenib: 1.5
- activity call: inactive

FGD5 (GeneID 152273)
- cell gain with vemurafenib: 0.87
- lactate per cell with vemurafenib: 0.9
- activity call: inactive

UQCR11 (GeneID 10975)
- cell gain with vemurafenib: 1.05
- lactate per cell with vemurafenib: 0.78
- activity call: inactive

KRT79 (GeneID 338785)
- cell gain with vemurafenib: 0.58
- lactate per cell with vemurafenib: 0.7
- activity call: inactive

NCALD (GeneID 83988)
- cell gain with vemurafenib: 0.59
- lactate per cell with vemurafenib: 1.36
- activity call: inactive

OR6A2 (GeneID 8590)
- cell gain with vemurafenib: 0.38
- lactate per cell with vemurafenib: 1.11
- activity call: inactive

PYCR1 (GeneID 5831)
- cell gain with vemurafenib: 0.55
- lactate per cell with vemurafenib: 1.88
- activity call: inactive

SPRN (GeneID 503542)
- cell gain with vemurafenib: 1.03
- lactate per cell with vemurafenib: 0.7
- activity call: inactive

UGT1A3 (GeneID 54659)
- cell gain with vemurafenib: 1.1
- lactate per cell with vemurafenib: 0.49
- activity call: inactive

HBS1L (GeneID 10767)
- cell gain with vemurafenib: 0.51
- lactate per cell with vemurafenib: 0.4
- activity call: inactive

NR5A1 (GeneID 2516)
- cell gain with vemurafenib: 0.48
- lactate per cell with vemurafenib: 0.62
- activity call: inactive

CPLX3 (GeneID 594855)
- cell gain with vemurafenib: 0.89
- lactate per cell with vemurafenib: 0.97
- activity call: inactive

ADAM19 (GeneID 8728)
- cell gain with vemurafenib: 0.86
- lactate per cell with vemurafenib: 0.5
- activity call: inactive

LRRC31 (GeneID 79782)
- cell gain with vemurafenib: 0.5
- lactate per cell with vemurafenib: 1.36
- activity call: inactive

HEXIM1 (GeneID 10614)
- cell gain with vemurafenib: 0.59
- lactate per cell with vemurafenib: 0.98
- activity call: inactive
